# Reference: paper PMC12040169 (PLOS Biology, 2025)
# The other results are listed elsewhere or left out.
# System: T1, CTL2-GFP (C. trachomatis L2/434/Bu, GFP-expressing)
# T1 construct: L2/434/Bu, GFP-expressing
# Design: species or system HeLa; Intracellular C. trachomatis growth in HeLa cells, bulk GFP fluorescence relative to DMSO
# Conditions: bulk GFP, single well; 28.5 h, 10 µM; inhibitor
row,SMILES,% of control remaining
1,O=[N+]([O-])c1cc(S(=O)(=O)n2ccc3ccccc32)ccc1N1CCNCC1 [CBK024593C],86.4818%
2,O=C(Nc1ccc2ncccc2c1)c1ccc(F)cc1Cl [CBK159796],106.813%
3,Cc1cc(=O)n2ncnc2n1COCCO [CBK262919],106.032%
4,Clc1ccc2nc(-c3ccccn3)[nH]c2c1 [CBK000116],32.6135%
5,O=C(Nc1ncc(Cl)s1)C1CC(=O)N(C2CC2)C1 (stereo not shown) [CBK175551],154.2%
6,N#Cc1ccccc1/C=N/NC(=O)COc1ccc(-c2cc(-c3ccccc3)c3cc(Cl)ccc3n2)cc1 [CBK263337],100%
7,COC(=O)c1sccc1NS(=O)(=O)c1ccc2ccccc2c1 [CBK004500],95.2246%
8,CCc1nn(CC(=O)NC(C)C)c(=O)c2cc3ccsc3n12 [CBK284131],133.539%
9,CCOC(=O)Nc1ccc2c(c1)N(C(=O)CN(C)C)c1ccccc1S2 [CBK261290C],83.0575%
10,Cc1c(S(=O)(=O)Nc2ccc(C(=O)c3ccccc3)cc2)cnn1-c1ccccc1 [CBK051034],174.562%
11,O=C(C[C@@H]1CCNC[C@@H]1Cc1cc(-c2ccccc2)on1)Nc1cccc(O)c1 [CBK289149],136.427%
12,COc1ccc2oc(C(=O)NCCN3CCOCC3)c(C)c2c1OC [CBK269913C],153.311%
13,CC(=O)N(C)c1nc(-c2cccc(N(C)C)c2)ccc1C(=O)Nc1ccc(C(F)(F)F)cc1 [CBK076623],104.762%
14,CCc1nc2ccc(C(=O)NC3CCN(C)CC3)cn2c1N(C)C=O [CBK146594],96.173%
15,COc1ccc(-c2nc(-c3cccs3)cnc2N)cc1OC [CBK063981],199.725%
16,CCOC(=O)c1c(NC(=O)CSc2nnc3ccccn23)sc2c1CCCCC2 [CBK265685],100%
17,CC(NCC(=O)N1c2ccccc2NC(=O)CC1C)c1ccc(-c2ccccc2)cc1 (stereo not shown) [CBK295155],169.888%
18,OCCN1CCN(c2ncnc3scc(-c4ccccc4)c23)CC1 [CBK287582],163.045%
19,NC(=O)NC(CC(=O)N1CCN(c2nccs2)CC1)c1cccc(Br)c1 (stereo not shown) [CBK304548],123.708%
20,c1cc(-c2nccnc2OC2CCCCC2)ccn1 [CBK106727],100%
21,CCC(=O)NC(c1ccc(OC)c(OC)c1)c1ccc2cccnc2c1O (stereo not shown) [CBK293926],81.1441%
22,CN(Cc1ccccc1)c1nccnc1-c1ccc(F)c(Cl)c1 [CBK037997],180.905%

# Some of the entries above, reformatted.
row | SMILES | % of control remaining
4 | Clc1ccc2nc(-c3ccccn3)[nH]c2c1 [CBK000116] | 32.6135%
19 | NC(=O)NC(CC(=O)N1CCN(c2nccs2)CC1)c1cccc(Br)c1 (stereo not shown) [CBK304548] | 123.708%
